Some of the results follow.
Tests used:
Test in all cases: log2 fold change, soluble protein after heating vs DMSO (PISA); higher = thermal stabilisation; K562 lysate, 10 uM; active = over 0.2 and 3.5 SD of the protein, either way, in both replicates (recomputed)
alvocidib = compound: CN1CC[C@H](c2c(O)cc(O)c3c(=O)cc(-c4ccccc4Cl)oc23)[C@H](O)C1 [alvocidib]
Method in brief: (§1)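 Dounce homogenisation of K562 pellets in PBS pH 7.4 with 1 mM MgCl2 produced a crude extract, used at 1 mg/mL protein. Exposure to 10 μM compound lasted 30 min, and aliquots were then heated for 3 min across 48°C-58°C, pooled and brought to 0.5% NP-40 at 4°C. The supernatant after 21,000xg for 90 min was quantified by TMTpro 16plex LC-MS/MS with channel sums equalised. Duplicate values are given as log-two fold change in thermal stability relative to solvent controls.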

Protein sequences, listed by entry. Tags and fused reporters are not part of them. Lines headed by an entry give the natural chain unless they say otherwise; changes in a name come on top.
UniProt Q6P1K1: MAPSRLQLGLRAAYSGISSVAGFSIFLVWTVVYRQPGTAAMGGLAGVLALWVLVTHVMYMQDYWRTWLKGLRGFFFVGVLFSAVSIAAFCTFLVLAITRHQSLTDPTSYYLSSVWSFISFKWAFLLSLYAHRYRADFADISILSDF
UniProt Q9Y619: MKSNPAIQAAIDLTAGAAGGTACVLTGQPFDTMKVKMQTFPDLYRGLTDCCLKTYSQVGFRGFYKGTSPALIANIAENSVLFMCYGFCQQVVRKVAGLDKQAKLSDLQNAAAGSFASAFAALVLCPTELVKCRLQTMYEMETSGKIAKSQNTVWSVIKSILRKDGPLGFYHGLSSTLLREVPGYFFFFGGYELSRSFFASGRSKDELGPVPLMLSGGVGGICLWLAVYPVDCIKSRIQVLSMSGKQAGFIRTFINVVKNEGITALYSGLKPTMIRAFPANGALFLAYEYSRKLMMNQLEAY
UniProt P52569: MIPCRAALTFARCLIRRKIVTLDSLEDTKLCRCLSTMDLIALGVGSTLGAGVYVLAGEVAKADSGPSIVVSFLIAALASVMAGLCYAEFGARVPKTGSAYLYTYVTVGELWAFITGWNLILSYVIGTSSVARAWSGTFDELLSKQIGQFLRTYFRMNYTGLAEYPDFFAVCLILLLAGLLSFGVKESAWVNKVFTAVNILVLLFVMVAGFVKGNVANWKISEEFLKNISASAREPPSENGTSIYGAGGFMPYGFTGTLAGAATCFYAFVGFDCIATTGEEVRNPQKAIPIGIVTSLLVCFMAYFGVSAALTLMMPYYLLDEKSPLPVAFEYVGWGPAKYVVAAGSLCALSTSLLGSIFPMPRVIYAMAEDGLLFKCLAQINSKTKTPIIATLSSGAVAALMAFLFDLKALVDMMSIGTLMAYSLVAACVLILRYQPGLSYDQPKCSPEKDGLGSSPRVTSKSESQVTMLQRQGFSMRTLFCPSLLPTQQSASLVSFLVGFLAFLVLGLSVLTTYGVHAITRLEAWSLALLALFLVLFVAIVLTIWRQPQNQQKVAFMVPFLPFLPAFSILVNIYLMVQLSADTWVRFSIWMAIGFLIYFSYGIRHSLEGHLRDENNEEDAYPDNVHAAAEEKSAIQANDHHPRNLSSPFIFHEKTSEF
UniProt Q9BV35: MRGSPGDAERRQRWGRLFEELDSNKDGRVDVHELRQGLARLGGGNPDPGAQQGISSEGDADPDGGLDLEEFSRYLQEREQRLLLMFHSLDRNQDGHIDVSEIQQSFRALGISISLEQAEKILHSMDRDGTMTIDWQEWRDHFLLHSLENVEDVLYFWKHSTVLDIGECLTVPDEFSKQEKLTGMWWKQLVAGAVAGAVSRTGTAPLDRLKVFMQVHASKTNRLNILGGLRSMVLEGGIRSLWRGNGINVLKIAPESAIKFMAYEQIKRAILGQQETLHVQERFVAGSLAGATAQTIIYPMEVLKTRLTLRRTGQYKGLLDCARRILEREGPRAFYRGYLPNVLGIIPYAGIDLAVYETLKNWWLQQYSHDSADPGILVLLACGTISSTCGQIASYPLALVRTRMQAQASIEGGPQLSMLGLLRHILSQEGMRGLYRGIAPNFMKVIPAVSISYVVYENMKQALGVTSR
UniProt Q6J4K2: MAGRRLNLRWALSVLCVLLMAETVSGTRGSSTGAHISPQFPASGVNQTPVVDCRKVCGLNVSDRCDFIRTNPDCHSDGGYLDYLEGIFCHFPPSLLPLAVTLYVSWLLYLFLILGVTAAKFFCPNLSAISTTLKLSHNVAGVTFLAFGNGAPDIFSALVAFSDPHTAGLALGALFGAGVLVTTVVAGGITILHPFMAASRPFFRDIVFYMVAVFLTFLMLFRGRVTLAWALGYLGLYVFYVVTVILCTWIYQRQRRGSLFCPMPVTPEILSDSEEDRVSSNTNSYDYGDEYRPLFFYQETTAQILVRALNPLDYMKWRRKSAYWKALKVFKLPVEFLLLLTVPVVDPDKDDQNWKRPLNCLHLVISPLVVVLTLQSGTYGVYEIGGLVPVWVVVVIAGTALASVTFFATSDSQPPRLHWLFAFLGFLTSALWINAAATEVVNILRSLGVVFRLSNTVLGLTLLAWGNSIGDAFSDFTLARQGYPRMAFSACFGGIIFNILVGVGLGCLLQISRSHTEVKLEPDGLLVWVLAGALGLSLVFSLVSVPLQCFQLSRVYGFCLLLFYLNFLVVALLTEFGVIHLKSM
UniProt Q96NT5: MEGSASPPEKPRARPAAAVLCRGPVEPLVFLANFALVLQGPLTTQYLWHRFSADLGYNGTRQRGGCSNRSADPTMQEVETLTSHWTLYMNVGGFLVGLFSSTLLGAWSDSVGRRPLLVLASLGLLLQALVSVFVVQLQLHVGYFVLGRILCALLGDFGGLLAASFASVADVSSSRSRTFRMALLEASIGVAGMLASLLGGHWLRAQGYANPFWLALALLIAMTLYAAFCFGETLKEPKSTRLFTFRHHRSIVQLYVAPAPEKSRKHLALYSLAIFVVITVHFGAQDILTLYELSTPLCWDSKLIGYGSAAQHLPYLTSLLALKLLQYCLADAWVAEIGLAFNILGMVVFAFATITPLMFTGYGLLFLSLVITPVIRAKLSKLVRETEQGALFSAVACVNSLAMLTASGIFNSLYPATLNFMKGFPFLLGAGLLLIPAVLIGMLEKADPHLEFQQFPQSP
UniProt Q8NEW0: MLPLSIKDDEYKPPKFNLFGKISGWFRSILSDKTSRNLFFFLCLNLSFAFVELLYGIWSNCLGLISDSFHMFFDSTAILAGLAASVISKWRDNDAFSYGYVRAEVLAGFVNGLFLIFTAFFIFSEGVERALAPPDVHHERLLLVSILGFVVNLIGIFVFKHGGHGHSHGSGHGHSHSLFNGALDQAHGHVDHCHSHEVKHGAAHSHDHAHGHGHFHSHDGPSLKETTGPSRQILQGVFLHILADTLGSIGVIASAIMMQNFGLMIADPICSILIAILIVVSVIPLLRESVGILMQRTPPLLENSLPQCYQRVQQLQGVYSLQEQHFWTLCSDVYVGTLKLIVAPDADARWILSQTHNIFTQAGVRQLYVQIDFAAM

Tubastatin A = compound: CN1CCc2c(c3ccccc3n2Cc2ccc(C(=O)NO)cc2)C1 [Tubastatin A]
Method in brief: as §1

[1] = compound: CNC(=O)C1=CC=CC=C1NC2=NC(=NC=C2Cl)NC3=C(C=C(C=C3)N4CCOCC4)OC
Method in brief: as §1

defactinib = compound: CNC(=O)c1ccc(Nc2ncc(C(F)(F)F)c(NCc3nccnc3N(C)S(C)(=O)=O)n2)cc1 [defactinib]
Method in brief: as §1

[2] = compound: CNc1nc(-c2ccc3c(N)n[nH]c3c2)cc(N2C[C@@H](C(=O)NC3CCCCC3)CC[C@H]2C)n1
Method in brief: as §1

encorafenib = compound: COC(=O)N[C@@H](C)CNc1nccc(-c2cn(C(C)C)nc2-c2cc(Cl)cc(NS(C)(=O)=O)c2F)n1 [encorafenib]
Method in brief: as §1

[3] = compound: COC(=O)[C@H](CCSC)NC(=O)C1=C(C=C(C=C1)NC[C@H](CS)N)C2=CC=CC=C2
Method in brief: as §1

alisertib = compound: COc1cc(Nc2ncc3c(n2)-c2ccc(Cl)cc2C(c2c(F)cccc2OC)=NC3)ccc1C(=O)O [alisertib]
Method in brief: as §1

[4] = compound: COc1cc2nc(-c3cc(F)ccc3O)nc(N[C@@H]3CNC[C@H]3C(C)(C)O)c2cc1OC
Method in brief: as §1

gefitinib = compound: COc1cc2ncnc(Nc3ccc(F)c(Cl)c3)c2cc1OCCCN1CCOCC1 [gefitinib]
Method in brief: as §1

lapatinib = compound: CS(=O)(=O)CCNCc1ccc(-c2ccc3ncnc(Nc4ccc(OCc5cccc(F)c5)c(Cl)c4)c3c2)o1 [lapatinib]
Method in brief: as §1

pictilisib = compound: CS(=O)(=O)N1CCN(Cc2cc3nc(-c4cccc5[nH]ncc45)nc(N4CCOCC4)c3s2)CC1 [pictilisib]
Method in brief: as §1

[5] = compound: C[C@H](C1=CC=C(C=C1)C(=O)NC2=C3C=CNC3=NC=C2)N
Method in brief: as §1

duvelisib = compound: C[C@H](Nc1ncnc2nc[nH]c12)c1cc2cccc(Cl)c2c(=O)n1-c1ccccc1 [duvelisib]
Method in brief: as §1

gandotinib = compound: Cc1cc(Nc2cc(CN3CCOCC3)c3nc(C)c(Cc4ccc(Cl)cc4F)n3n2)n[nH]1 [gandotinib]
Method in brief: as §1

tozasertib = compound: Cc1cc(Nc2cc(N3CCN(C)CC3)nc(Sc3ccc(NC(=O)C4CC4)cc3)n2)n[nH]1 [tozasertib]
Method in brief: as §1

bafetinib = compound: Cc1ccc(NC(=O)c2ccc(CN3CC[C@H](N(C)C)C3)c(C(F)(F)F)c2)cc1Nc1nccc(-c2cncnc2)n1 [bafetinib]
Method in brief: as §1

[6] = compound: Cc1cccc(CC(=O)N2CCc3c2ccc(-c2cn(C)c4ncnc(N)c24)c3F)n1
Method in brief: as §1

crizotinib = compound: C[C@@H](Oc1cc(-c2cnn(C3CCNCC3)c2)cnc1N)c1c(Cl)ccc(F)c1Cl [crizotinib]
Method in brief: as §1

doramapimod = compound: Cc1ccc(-n2nc(C(C)(C)C)cc2NC(=O)Nc2ccc(OCCN3CCOCC3)c3ccccc23)cc1 [doramapimod]
Method in brief: as §1

Measured: log2 fold change

SLC48A1 (UniProt Q6P1K1)
inactive: alvocidib -0.011 | Tubastatin A 0.005 | [1] -0.023 | defactinib -0.047 | [2] -0.012 | encorafenib 0.021 | [3] 0.087 | alisertib -0.293 | [4] 0.112 | gefitinib -0.104 | lapatinib -0.002 | pictilisib 0.039 | [5] -0.079 | duvelisib -0.147 | gandotinib 0.082 | tozasertib -0.1 | bafetinib -0.091 | [6] 0.133

SLC25A15 (UniProt Q9Y619)
inactive: alvocidib -0.021 | Tubastatin A -0.054 | [1] 0.051 | defactinib 0.027 | [2] 0.027 | encorafenib -0.022 | [3] 0.009 | alisertib 0.002 | [4] 0.025 | gefitinib 0.031 | lapatinib -0.029 | pictilisib -0.006 | crizotinib 0.005 | [5] -0.057 | duvelisib 0.02 | gandotinib 0.023 | tozasertib -0.035 | doramapimod 0.004 | bafetinib -0.013 | [6] 0.029

SLC7A2 isoform 3 (UniProt P52569)
inactive: alvocidib -0.136 | Tubastatin A 0.051 | [1] -0.013 | defactinib -0.072 | [2] 0.268 | encorafenib 0.028 | [3] -0.109 | alisertib 0.01 | [4] 0.031 | gefitinib -0.015 | lapatinib -0.107 | pictilisib 0.035 | crizotinib -0.035 | [5] 0.043 | duvelisib 0.052 | gandotinib -0.024 | tozasertib -0.131 | doramapimod 0.038 | bafetinib -0.11 | [6] 0.077

SLC25A23 isoform 3 (UniProt Q9BV35)
inactive: alvocidib -0.154 | Tubastatin A 0.097 | [1] 0.216 | [2] 0.193 | [4] 0.204 | lapatinib -0.098 | crizotinib -0.049 | [5] 0.147 | duvelisib 0.059 | gandotinib -0.021 | doramapimod 0.037 | [6] -0.1

SLC8B1 (UniProt Q6J4K2)
inactive: alvocidib -0.038 | defactinib 0.024 | [2] 0.152 | [4] -0.06 | lapatinib -0.042 | [5] -0.113 | duvelisib -0.12 | gandotinib 0.189 | [6] 0.221

SLC46A1 (UniProt Q96NT5)
inactive: alvocidib 0.068 | [1] -0.007 | [2] -0.032 | [4] -0.041 | lapatinib 0.074 | [5] -0.032 | duvelisib -0.015 | gandotinib 0.013 | [6] 0.007

SLC30A7 (UniProt Q8NEW0)
inactive: alvocidib 0.133 | Tubastatin A -0.009 | defactinib 0 | [2] -0.066 | encorafenib 0.174 | [3] -0.023 | alisertib -0.253 | [4] 0.039 | gefitinib 0.203 | lapatinib -0.047 | pictilisib 0.008 | crizotinib 0.003 | [5] -0.059 | duvelisib 0.108 | gandotinib 0.171 | tozasertib 0.092 | doramapimod -0.026 | bafetinib -0.109 | [6] 0.059
